These are yes or no findings as the source states them, for the method shown. For part of these data: In cells and extracts the contact can be indirect. Some entries that bind do so weakly or less than the wild type. For part of these data: Sequences can lack the tags named with a protein.

Data on two molecules can be found in paper doi:10.1101/2022.01.12.475930.

For assay [1], the target named is T1, FLOT2-FLAG (UniProt Q14254).
T1 sequence: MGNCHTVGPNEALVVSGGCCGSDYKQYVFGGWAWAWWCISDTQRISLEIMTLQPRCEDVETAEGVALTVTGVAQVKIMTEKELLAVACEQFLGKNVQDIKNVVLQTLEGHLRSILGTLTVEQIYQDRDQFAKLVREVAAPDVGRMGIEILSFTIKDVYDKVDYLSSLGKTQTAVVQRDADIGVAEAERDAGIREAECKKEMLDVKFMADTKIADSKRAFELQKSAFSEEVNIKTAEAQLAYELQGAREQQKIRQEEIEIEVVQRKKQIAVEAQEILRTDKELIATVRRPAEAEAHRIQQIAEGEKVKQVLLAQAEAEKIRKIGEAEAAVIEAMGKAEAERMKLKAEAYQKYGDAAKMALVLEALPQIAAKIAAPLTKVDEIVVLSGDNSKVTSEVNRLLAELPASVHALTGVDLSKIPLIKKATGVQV
The assay can be described thus: cross-linking.

For assay [2], the target named is T1, FLOT2-FLAG. The assay can be described thus: native gel or EMSA. In general terms: Mobility shift assays separate free from complexed probe on a gel.
In assay [3] the target is T2, PPT1 (human (endogenous in HEK293)), P50897.
T2 chain: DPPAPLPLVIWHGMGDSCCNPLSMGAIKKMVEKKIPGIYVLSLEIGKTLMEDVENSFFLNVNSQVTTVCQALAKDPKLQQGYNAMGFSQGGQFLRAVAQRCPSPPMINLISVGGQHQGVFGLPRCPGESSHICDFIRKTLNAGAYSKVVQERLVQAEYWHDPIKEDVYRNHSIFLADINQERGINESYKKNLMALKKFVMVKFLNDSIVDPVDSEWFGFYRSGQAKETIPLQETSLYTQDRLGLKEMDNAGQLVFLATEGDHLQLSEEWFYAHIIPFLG
The assay can be described thus: cross-linking. To be noted: remark: other sources report otherwise.

B1: FLOT1-FLAG (protein, UniProt O75955 1-427)
chain: MFFTCGPNEAMVVSGFCRSPPVMVAGGRVFVLPCIQQIQRISLNTLTLNVKSEKVYTRHGVPISVTGIAQVKIQGQNKEMLAAACQMFLGKTEAEIAHIALETLEGHQRAIMAHMTVEEIYKDRQKFSEQVFKVASSDLVNMGISVVSYTLKDIHDDQDYLHSLGKARTAQVQKDARIGEAEAKRDAGIREAKAKQEKVSAQYLSEIEMAKAQRDYELKKAAYDIEVNTRRAQADLAYQLQVAKTKQQIEEQRVQVQVVERAQQVAVQEQEIARREKELEARVRKPAEAERYKLERLAEAEKSQLIMQAEAEAASVRMRGEAEAFAIGARARAEAEQMAKKAEAFQLYQEAAQLDMLLEKLPQVAEEISGPLTSANKITLVSSGSGTMGAAKVTGEVLDILTRLPESVERLTGVSISQVNHKPLRTA
Take B1: the binding entry with FLOT2-FLAG [1] and with FLOT2-FLAG [2] was “binds” throughout.

B2: PPT1, P50897 28-306 (enzyme)
chain: T2 chain
For the molecule B2, the binding result in assay [3] was “binds”.
